# According to PubChem BioAssay AID1487 (National Center for Advancing Translational Sciences (NCATS), 2009):
# The list shows a part of the results. Shown are side measurements of this screen, not its main read-out; they come without a call. Compounds called inactive in the main read-out are mostly missing here. Words in brackets tell the shape of the fitted curve; partial curves, single points and poor fits give uncertain potencies.
# Experiment: qHTS Assay for Modulators of Lamin A Splicing
# Conditions: HeLa LMNA splicing GFP/RFP minigene ratio, 48 h
# Method in brief: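 S3 HeLa cells stably expressing lamin A-EGFP splicing minigene plus DsRed2, 600 cells/well, 48 h compound exposure at 37C. Laser-scanning cytometry; analysed as GFP (500-530 nm)/RFP (575-640 nm) total intensity ratio; 0.5% DMSO vehicle.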
# [1] = measured here: RFP viability control channel
# [2] = measured here: GFP splicing reporter channel
smiles,measurement,setting,value
CCOc1ccc(Nc2c3c(nc4ncnn24)CC(C)CC3)cc1 (stereo not drawn),AC50,[1],"12.6 µM [rising, single point]"
NC(=O)N/N=C/c1ccc(N2CCOCC2)s1,AC50,[1],"35.5 µM [falling, single point]"
N#Cc1ccc(NC(=O)Nc2ccc(Cl)cc2)cc1,AC50,[2],"7.08 µM [rising, full curve, poor fit]"
same,AC50,[1],"5.01 µM [rising, full curve, poor fit]"
c1ccc2c(c1)CC/C2=N/Nc1nc2ccccc2[nH]1,AC50,[2],"15.8 µM [rising, partial curve]"
same,AC50,[1],"11.2 µM [rising, partial curve]"
CN(C)S(=O)(=O)N1CCN(CC(O)COc2ccc3cc(Br)ccc3c2)CC1 (stereo not drawn),AC50,[2],"14.1 µM [rising, partial curve]"
same,AC50,[1],"25.1 µM [rising, partial curve]"
Cc1cc(C(=O)OCC(=O)NC2CCS(=O)(=O)C2)c(C)n1-c1ccccc1 (stereo not drawn),AC50,[1],"15.8 µM [rising, partial curve, poor fit]"
C=CCN(CC=C)C(=S)NC(=O)c1ccc(C)c(Br)c1,AC50,[2],"11.2 µM [rising, partial curve]"
same,AC50,[1],"22.4 µM [rising, single point]"
CC(=O)c1ccc(C(=O)N(Cc2cccnc2)c2nc3c(C)c(C)ccc3s2)cc1,AC50,[1],"17.8 µM [rising, single point]"
Cc1cc(Nc2c(C#N)c(N)nn2C)ccc1F,AC50,[2],"1.78 µM [falling, partial curve, poor fit]"
O=C(Cc1ccccc1F)Nc1cccc2cccnc12,AC50,[2],"20 µM [rising, single point]"
same,AC50,[1],"35.5 µM [rising, single point]"
N=c1c2c(ncn1Cc1ccco1)Oc1c(ccc3ccccc13)C2c1ccccc1 (stereo not drawn),AC50,[2],"35.5 µM [falling, single point]"
same,AC50,[1],"5.62 µM [rising, single point]"
COC(=O)c1nc2n(n1)C(c1cc(OC)ccc1OC)C=C(c1ccc(Br)cc1)N2 (stereo not drawn),AC50,[2],"17.8 µM [rising, partial curve, poor fit]"
same,AC50,[1],"12.6 µM [rising, single point]"
CCOc1cc(NC(=S)NCCCN2CCOCC2)c(OCC)cc1NC(=O)C1CCCCC1,AC50,[1],"28.2 µM [rising, single point]"
CCOc1ccc(N(C)S(=O)(=O)c2ccc3[nH]cc(C(=O)NCC4CCCO4)c(=O)c3c2)cc1 (stereo not drawn),AC50,[1],"31.6 µM [rising, single point]"
O=C(NC1CCCCCC1)c1cc(-c2ccccn2)nc2ccccc12,AC50,[1],"3.98 µM [rising, full curve, poor fit]"
COc1ccc(/C=N/NC(=O)c2cccc(COCC(F)(F)C(F)F)c2)cc1,AC50,[2],"11.2 µM [rising, single point]"
CCOC(=O)Cn1c(=O)c2c(nc(Br)n2Cc2ccccc2Cl)n(C)c1=O,AC50,[1],"20 µM [rising, single point]"
CC(c1ccccc1)N(CC(=O)NC1CCCCC1)S(=O)(=O)c1cccc(C(F)(F)F)c1 (stereo not drawn),AC50,[2],"11.2 µM [rising, single point]"
same,AC50,[1],"15.8 µM [rising, single point]"
COc1ccccc1CNC(=O)c1ccc(-n2c(C)cc3c2CCCC3)cc1,AC50,[2],"35.5 µM [falling, single point]"
same,AC50,[1],"35.5 µM [falling, single point]"
Clc1cccc(CSc2nnc(-c3ccccn3)n2Cc2ccco2)c1,AC50,[1],"28.2 µM [rising, single point]"
CC1CCN(S(=O)(=O)c2cc(C(=O)NCc3ccccc3)n(C)c2)CC1,AC50,[1],"3.16 µM [rising, full curve, poor fit]"
O=C(O)Cc1ccc(NC(=O)Nc2cccc(Cl)c2)cc1,AC50,[2],"6.31 µM [rising, partial curve, poor fit]"
COc1ccc(NC(=O)Nc2sc(NS(=O)(=O)c3ccccc3)nc2C)cc1,AC50,[2],"0.447 µM [rising, partial curve]"
O=S(=O)(NCCSc1ccc(Cl)cc1)c1ccc2c(c1)OCCO2,AC50,[2],"7.08 µM [rising, single point]"
same,AC50,[1],"17.8 µM [rising, single point]"
Cc1ccc(C(=O)COC(=O)c2cn(-c3ccccc3)nc2-c2ccccc2)cc1[N+](=O)[O-],AC50,[1],"14.1 µM [rising, partial curve, poor fit]"
CCC(C)NCC(=O)Nc1ccc(S(N)(=O)=O)cc1 (stereo not drawn),AC50,[1],"0.2 µM [falling, full curve, poor fit]"
C=CCNc1nc(Nc2ccc([N+](=O)[O-])cc2)nc(OCC)n1,AC50,[2],"35.5 µM [falling, single point]"
same,AC50,[1],"22.4 µM [falling, single point]"
CCOc1ccc(NC(=O)c2ccc(NC(=S)NC3CCCCC3)cc2)cc1,AC50,[2],"15.8 µM [falling, single point]"
same,AC50,[1],"31.6 µM [falling, single point]"
CC(=O)Nc1ccc(NC(=O)C(c2ccccc2)N2Cc3ccccc3C2=O)cc1 (stereo not drawn),AC50,[2],"0.891 µM [falling, full curve, poor fit]"
CCn1c(N2CCN(C(=O)C34CC5CC(CC(C5)C3)C4)CC2)nc2ccccc21,AC50,[1],"11.2 µM [rising, partial curve, poor fit]"
Cn1cc([N+](=O)[O-])c(C(=O)Nc2cnn(Cc3ccc(F)cc3)c2)n1,AC50,[1],"31.6 µM [rising, single point]"
CCNC(=O)CC1C(=O)N(c2ccc(C)cc2)C(=O)N1CCc1sccc1C (stereo not drawn),AC50,[1],"0.00891 µM [falling, full curve, poor fit]"
O=C(CCCc1cccs1)N1CCN(S(=O)(=O)c2ccccc2Br)CC1,AC50,[1],"15.8 µM [rising, single point]"
Fc1cccc2sc(Nc3nc4cc5c(cc4s3)OCO5)nc12,AC50,[2],"12.6 µM [rising, partial curve]"
same,AC50,[1],"7.08 µM [rising, partial curve, poor fit]"
O=C(CCCN1C(=O)c2cccnc2C1=O)Nc1ccccc1F,AC50,[2],"4.47 µM [rising, partial curve, poor fit]"
same,AC50,[1],"3.55 µM [rising, partial curve]"
COc1ccc(N2C(=O)CCSC23C(=O)N(Cc2ccc(F)cc2)c2ccccc23)cc1 (stereo not drawn),AC50,[2],"35.5 µM [falling, partial curve, poor fit]"
same,AC50,[1],"1.41 µM [falling, full curve]"
Cc1ccc2oc(=O)n(CCCOc3ccccc3)c2c1,AC50,[2],"35.5 µM [rising, single point]"
O=C(O/N=C1\CCCc2ccccc21)C1CC1,AC50,[1],"0.126 µM [rising, full curve]"
CC1CN(Cc2csc(-c3ccc(Cl)cc3)n2)CC(C)O1 (stereo not drawn),AC50,[1],"0.00316 µM [falling, full curve, poor fit]"
O=C(NO)c1ccc(C(=O)N(C2CCCCC2)C2CCCCC2)cc1,AC50,[2],"11.2 µM [rising, partial curve, poor fit]"
same,AC50,[1],"8.91 µM [rising, partial curve, poor fit]"
CCCCc1ccc(NC(=S)NCCO)cc1,AC50,[1],"0.891 µM [falling, full curve, poor fit]"
Cc1nn(-c2ccc(F)cc2)c2sc(C(=O)N3CCCCCC3)cc12,AC50,[1],"31.6 µM [rising, single point]"
OC(COc1c(F)cc(Br)cc1F)CN1CCN(c2ccc(F)cc2)CC1 (stereo not drawn),AC50,[2],"15.8 µM [rising, single point]"
same,AC50,[1],"7.94 µM [rising, partial curve]"
CC(C)(Oc1ccc(Cl)cc1)C(=O)N1CCN(c2ccccn2)CC1,AC50,[1],"35.5 µM [rising, single point]"
Cc1ccc(NS(=O)(=O)c2ccc3c(c2)CC(C)N3C(=O)C2CCC2)cc1Cl (stereo not drawn),AC50,[1],"35.5 µM [rising, single point]"
COc1ccc2c3c(cccc13)C(=O)N(O)C2=O,AC50,[2],"5.62 µM [rising, partial curve]"
same,AC50,[1],"7.94 µM [rising, partial curve]"
COc1ccc(O)c(/C=N/NC(=O)c2ccc(CSc3nc(C)cc(C)n3)cc2)c1,AC50,[1],"12.6 µM [rising, partial curve]"
CCOc1ccc(NC(=O)C2CCCN2C(=O)OCc2ccccc2)cc1 (stereo not drawn),AC50,[2],"0.0141 µM [falling, full curve]"
same,AC50,[1],"0.0562 µM [falling, full curve, poor fit]"
CCOC(=O)C1CCN(c2nc3ccccc3nc2C(C#N)C(=O)NCCc2ccccc2)CC1 (stereo not drawn),AC50,[2],"35.5 µM [rising, single point]"
same,AC50,[1],"7.94 µM [rising, partial curve, poor fit]"
CCN1CCN(CC(O)COc2ccc3c(c2)CCC3)CC1 (stereo not drawn),AC50,[2],"25.1 µM [rising, single point]"
Cc1cccc(NC(=O)NNC(=O)c2nn(C)cc2Br)c1,AC50,[2],"4.47 µM [falling, partial curve]"
same,AC50,[1],"3.16 µM [falling, partial curve, poor fit]"
O=C(CSc1ccc2c(c1)OCCO2)NC(=O)NC1CCCC1,AC50,[2],"35.5 µM [rising, single point]"
same,AC50,[1],"35.5 µM [rising, single point]"
CN(C)S(=O)(=O)N1CCN(CC(=O)Nc2cc(Cl)ccc2Cl)CC1,AC50,[1],"2.51 µM [rising, partial curve]"
Cc1ccc2nc3sc(C(=O)NCc4ccco4)c(N)c3cc2c1,AC50,[2],"20 µM [falling, single point]"
same,AC50,[1],"15.8 µM [falling, single point]"
CCCOc1ccc(CSCCNC(=S)Nc2ccccc2)cc1,AC50,[1],"35.5 µM [rising, single point]"

# Some of the entries so far, with bars between the fields.
smiles | measurement | setting | value
N#Cc1ccc(NC(=O)Nc2ccc(Cl)cc2)cc1 | AC50 | [1] | 5.01 µM [rising, full curve, poor fit]
c1ccc2c(c1)CC/C2=N/Nc1nc2ccccc2[nH]1 | AC50 | [2] | 15.8 µM [rising, partial curve]
CN(C)S(=O)(=O)N1CCN(CC(O)COc2ccc3cc(Br)ccc3c2)CC1 (stereo not drawn) | AC50 | [2] | 14.1 µM [rising, partial curve]
CC(=O)c1ccc(C(=O)N(Cc2cccnc2)c2nc3c(C)c(C)ccc3s2)cc1 | AC50 | [1] | 17.8 µM [rising, single point]
COC(=O)c1nc2n(n1)C(c1cc(OC)ccc1OC)C=C(c1ccc(Br)cc1)N2 (stereo not drawn) | AC50 | [2] | 17.8 µM [rising, partial curve, poor fit]
CCOc1ccc(N(C)S(=O)(=O)c2ccc3[nH]cc(C(=O)NCC4CCCO4)c(=O)c3c2)cc1 (stereo not drawn) | AC50 | [1] | 31.6 µM [rising, single point]
COc1ccccc1CNC(=O)c1ccc(-n2c(C)cc3c2CCCC3)cc1 | AC50 | [1] | 35.5 µM [falling, single point]
Clc1cccc(CSc2nnc(-c3ccccn3)n2Cc2ccco2)c1 | AC50 | [1] | 28.2 µM [rising, single point]
O=S(=O)(NCCSc1ccc(Cl)cc1)c1ccc2c(c1)OCCO2 | AC50 | [2] | 7.08 µM [rising, single point]
CCOc1ccc(NC(=O)c2ccc(NC(=S)NC3CCCCC3)cc2)cc1 | AC50 | [1] | 31.6 µM [falling, single point]
COc1ccc(N2C(=O)CCSC23C(=O)N(Cc2ccc(F)cc2)c2ccccc23)cc1 (stereo not drawn) | AC50 | [2] | 35.5 µM [falling, partial curve, poor fit]
same | AC50 | [1] | 1.41 µM [falling, full curve]
CC1CN(Cc2csc(-c3ccc(Cl)cc3)n2)CC(C)O1 (stereo not drawn) | AC50 | [1] | 0.00316 µM [falling, full curve, poor fit]
COc1ccc2c3c(cccc13)C(=O)N(O)C2=O | AC50 | [2] | 5.62 µM [rising, partial curve]
same | AC50 | [1] | 7.94 µM [rising, partial curve]
CCOC(=O)C1CCN(c2nc3ccccc3nc2C(C#N)C(=O)NCCc2ccccc2)CC1 (stereo not drawn) | AC50 | [1] | 7.94 µM [rising, partial curve, poor fit]
